PMC5299006
These are yes or no findings as the source states them, for the method shown. Binding seen in cells or lysates may run through a third protein. Binding calls can cover weak binding; strength is not graded here.

The chains behind the UniProt entries cited, without tags or fusion partners. Where a name states a change or a piece, a line headed by the entry shows the natural chain unless it says otherwise.
UniProt Q3Y4G8: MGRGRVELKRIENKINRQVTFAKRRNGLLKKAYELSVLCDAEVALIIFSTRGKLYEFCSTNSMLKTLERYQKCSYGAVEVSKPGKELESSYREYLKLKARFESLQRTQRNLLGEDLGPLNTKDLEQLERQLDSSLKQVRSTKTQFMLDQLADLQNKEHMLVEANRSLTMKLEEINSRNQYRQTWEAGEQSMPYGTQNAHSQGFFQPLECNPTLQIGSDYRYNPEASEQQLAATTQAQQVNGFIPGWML
UniProt Q5GMP6: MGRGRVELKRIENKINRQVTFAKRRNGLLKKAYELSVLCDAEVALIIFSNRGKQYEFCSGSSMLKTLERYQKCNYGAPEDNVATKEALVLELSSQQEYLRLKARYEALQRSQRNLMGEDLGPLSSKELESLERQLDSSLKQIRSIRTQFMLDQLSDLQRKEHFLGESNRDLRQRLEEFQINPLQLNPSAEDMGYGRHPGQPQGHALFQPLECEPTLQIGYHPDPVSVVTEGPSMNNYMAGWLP

Target: GmAGL1 fused to a split-YFP fragment for BiFC (GmAGL1-N-YFP) (soybean (Glycine max))
Experiment: split reporter; BiFC with split YFP (N-YFP 1-155, C-YFP 156-239); plasmids co-bombarded 1:1 into onion epidermal cells; confocal imaging two days after bombardment

| binding | Substance |
| --- | --- |
| binds | GmSEP1 fused to C-YFP for BiFC (GmSEP1-C-YFP) (from UniProt Q3Y4G8) |
| binds | GmSEP3 fused to C-YFP for BiFC (GmSEP3-C-YFP) (from UniProt Q5GMP6) |
